At least one read-out could not be matched to a standard name with certainty. Peptide text beside a SMILES is read from it. * marks the point of attachment. AMC = Cc1cc(=O)oc2cc(N*)ccc12; Cbz = O=C(OCc1ccccc1)*
Columns and labels:
Factor XIa = Factor XIa (Homo sapiens, UniProt P03951); test: Kinetic parameters of the peptide substrate 5Fam-KLTRAETV-K5Tamra with FXIa (substrate inhibition model); type: biochemical; conditions: enzymatic efficiency
Description: A fluorescence intensity (FLINT) based assay was used to monitor inhibition of Factor XIa. The peptide substrate, 5Fam-KLTRAETV-K5Tamra (purchased from New England Peptide) was chosen based on the FXI sequence. Conversion of zymogen FXI to its activated form, FXIa, occurs by proteolytic cleavage by […] at two sites, Arg146 and Arg180. The custom peptide used in this assay was based on the Arg146 cleavage site of FXI. The peptide substrate was designed with a fluorophore-quencher pair, where the fluorescence is quenched until FXIa cleaves the 8-mer peptide after the Arg residue.

Sequences of proteins named here, by UniProt entry; tags and fusion partners are left off. Residues count along the entry.
UniProt P03951, 19-387 partner limits assumed: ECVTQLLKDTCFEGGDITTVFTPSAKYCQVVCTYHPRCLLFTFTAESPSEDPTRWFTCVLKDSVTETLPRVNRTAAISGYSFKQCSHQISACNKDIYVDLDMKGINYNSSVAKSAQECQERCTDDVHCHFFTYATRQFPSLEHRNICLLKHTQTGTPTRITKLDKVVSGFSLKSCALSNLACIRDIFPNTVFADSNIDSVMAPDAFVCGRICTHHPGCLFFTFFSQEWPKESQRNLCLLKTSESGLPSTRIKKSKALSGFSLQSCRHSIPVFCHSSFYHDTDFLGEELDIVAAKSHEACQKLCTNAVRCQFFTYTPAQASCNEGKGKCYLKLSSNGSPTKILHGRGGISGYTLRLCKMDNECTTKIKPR
UniProt P03951, 388-625 limits assumed: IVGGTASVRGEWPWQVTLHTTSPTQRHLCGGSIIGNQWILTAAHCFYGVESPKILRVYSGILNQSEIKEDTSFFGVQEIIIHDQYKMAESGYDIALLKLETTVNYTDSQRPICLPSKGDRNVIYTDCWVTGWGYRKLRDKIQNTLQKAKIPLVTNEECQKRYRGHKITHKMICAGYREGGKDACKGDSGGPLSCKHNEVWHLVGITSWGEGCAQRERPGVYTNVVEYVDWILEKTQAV
UniProt P03952, 20-390 partner limits assumed: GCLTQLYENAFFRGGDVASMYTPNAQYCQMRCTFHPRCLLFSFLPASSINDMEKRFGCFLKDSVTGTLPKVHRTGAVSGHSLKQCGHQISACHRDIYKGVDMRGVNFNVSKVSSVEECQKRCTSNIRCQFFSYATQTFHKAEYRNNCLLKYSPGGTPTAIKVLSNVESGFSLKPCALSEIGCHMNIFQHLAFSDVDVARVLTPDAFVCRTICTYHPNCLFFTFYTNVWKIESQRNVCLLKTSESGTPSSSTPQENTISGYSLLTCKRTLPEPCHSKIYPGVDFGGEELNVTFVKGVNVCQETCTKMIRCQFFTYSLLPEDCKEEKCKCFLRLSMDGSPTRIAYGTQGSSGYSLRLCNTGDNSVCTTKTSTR
UniProt P03952, 391-638 limits assumed: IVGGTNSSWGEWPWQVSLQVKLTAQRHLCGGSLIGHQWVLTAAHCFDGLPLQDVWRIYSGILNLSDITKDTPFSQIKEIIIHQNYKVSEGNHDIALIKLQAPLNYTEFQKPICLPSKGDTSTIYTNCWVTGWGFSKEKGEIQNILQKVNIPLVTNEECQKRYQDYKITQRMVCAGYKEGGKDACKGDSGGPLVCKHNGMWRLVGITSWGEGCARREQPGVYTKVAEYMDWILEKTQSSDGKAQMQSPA

human plasma kallikrein = human plasma kallikrein (Homo sapiens, UniProt P03952); test: Kinetic parameters of the substrate Z-Gly-Pro-Arg-AMC with kallikrein (Michaelis-Menten fit); type: biochemical
Description: A fluorescence intensity (FLINT) based assay was used to monitor inhibition of human plasma kallikrein. The peptide substrate, Z-Gly-Pro-Arg-AMC (Purchased from Bachem; Catalog #1-1150) was chosen based on its relatively low KM for kallikrein which enables running the assay at lower substrate concentrations to control background fluorescence.

Molecule | kcat/KM (Factor XIa) [M⁻¹ s⁻¹] | kcat/KM (human plasma kallikrein) [M⁻¹ s⁻¹]
5Fam-KLTRAETV-K5Tamra (5-FAM N-terminal; C-terminal Lys-TAMRA) [fluorophore-quencher pair peptide substrate based on the Arg146 cleavage site of FXI, purchased from New England Peptide] | 69523 | 
Cc1cc(=O)oc2cc(NC(=O)[C@H](CCCNC(=N)N)NC(=O)[C@@H]3CCCN3C(=O)CNC(=O)OCc3ccccc3)ccc12 [Z-Gly-Pro-Arg-AMC] (Cbz-Gly-Pro-Arg-{AMC}) |  | 18932
